Source: publication doi:10.1101/2020.05.07.082735
Where two headings read alike, the source gives them in different places. These are yes or no findings as the source states them, for the method shown. For some assays here: Binding seen in cells or lysates may run through a third protein. Some binding calls cover weakened binding; strength is not graded here. Where a sequence is shown, tags or fusion partners need not be part of it.

Sequences of proteins named here, by UniProt entry; tags and fusion partners are left off.
UniProt Q8GW32: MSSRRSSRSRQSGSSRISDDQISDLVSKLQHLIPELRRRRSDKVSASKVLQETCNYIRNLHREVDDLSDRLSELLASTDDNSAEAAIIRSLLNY
UniProt Q9M0B9: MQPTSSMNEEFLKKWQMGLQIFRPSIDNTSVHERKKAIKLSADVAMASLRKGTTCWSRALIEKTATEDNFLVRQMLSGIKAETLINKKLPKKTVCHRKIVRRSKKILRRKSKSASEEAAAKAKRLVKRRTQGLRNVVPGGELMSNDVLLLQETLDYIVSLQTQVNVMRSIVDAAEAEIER
UniProt Q9LXR7: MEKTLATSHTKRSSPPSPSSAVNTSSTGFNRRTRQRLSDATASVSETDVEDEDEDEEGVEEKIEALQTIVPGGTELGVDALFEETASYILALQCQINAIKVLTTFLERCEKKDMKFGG

B1: ILI1 BINDING BHLH 1 (IBH1), GAL4 activation domain fusion (protein, UniProt Q9SKX1 1-156)
chain: MASADKLINTDVPEKDVFAFHFLQSLSNLRKQNPFDTPDQKNYRVRKIKKAAYVSMARAAGGSSRLWSRALLRRADKDDNKIVRFSRRKWKISSKRRRSNQRAPVVEEAAERLRNLVPGGGGMETSKLMEETAHYIKCLSMQVKVMQCLVDGLSPK
B2: PHYTOCHROME-… FACTOR 5 (PIF5), GAL4 activation domain fusion (protein, UniProt Q84LH8 1-444)
chain: MEQVFADWNFEDNFHMSTNKRSIRPEDELVELLWRDGQVVLQSQARREPSVQVQTHKQETLRKPNNIFLDNQETVQKPNYAALDDQETVSWIQYPPDDVIDPFESEFSSHFFSSIDHLGGPEKPRTIEETVKHEAQAMAPPKFRSSVITVGPSHCGSNQSTNIHQATTLPVSMSDRSKNVEERLDTSSGGSSGCSYGRNNKETVSGTSVTIDRKRKHVMDADQESVSQSDIGLTSTDDQTMGNKSSQRSGSTRRSRAAEVHNLSERRRRDRINERMKALQELIPHCSRTDKASILDEAIDYLKSLQMQLQVMWMGSGMAAAAAAAASPMMFPGVQSSPYINQMAMQSQMQLSQFPVMNRSAPQNHPGLVCQNPVQLQLQAQNQILSEQLARYMGGIPQMPPAGNQMQTVQQQPADMLGFGSPAGPQSQLSAPATTDSLHMGKIG
B3: LONG HYPOCOTYL IN FAR-RED 1 (HFR1), GAL4 two-hybrid fusion (protein, UniProt Q9FE22 1-292)
chain: MSNNQAFMELGWRNDVGSLAVKDQGMMSERARSDEDRLINGLKWGYGYFDHDQTDNYLQIVPEIHKEVENAKEDLLVVVPDEHSETDDHHHIKDFSERSDHRFYLRNKHENPKKRRIQVLSSDDESEEFTREVPSVTRKGSKRRRRDEKMSNKMRKLQQLVPNCHKTDKVSVLDKTIEYMKNLQLQLQMMSTVGVNPYFLPATLGFGMHNHMLTAMASAHGLNPANHMMPSPLIPALNWPLPPFTNISFPHSSSQSLFLTTSSPASSPQSLHGLVPYFPSFLDFSSHAMRRL
B4: PHYTOCHROME RAPIDLY REGULATED 1 (PAR1), split Venus fusion for BiFC (protein, UniProt Q9SJH0 1-118)
chain: MEETLATPDATRRSLSPSCSATVKSRAAGFERRTKRRLSETNASVREDREEAEEEEDEVKEKIEALQRIIPGGAALGVDALFEETAGYILSLQCQIKTIKVLTSFLQRIDQEDMKFGG
B5: ATBS1-… FACTOR 2 (AIF2), split Venus fusion for BiFC (protein, UniProt Q9C8Z9 1-221)
chain: MASLISDIEPPTSTTSDLVRRKKRSSASSAASSRSSASSVSGEIHARWRSEKQQRIYSAKLFQALQQVRLNSSASTSSSPTAQKRGKAVREAADRALAVSARGRTLWSRAILANRIKLKFRKQRRPRATMAIPAMTTVVSSSSNRSRKRRVSVLRLNKKSIPDVNRKVRVLGRLVPGCGKQSVPVILEEATDYIQALEMQVRAMNSLVQLLSSYGSAPPPI
B6: ILI1 BINDING BHLH 1 (IBH1), split Venus fusion for BiFC (protein, UniProt Q9SKX1 1-156)
chain: B1 chain
B7: PHYTOCHROME RAPIDLY REGULATED 1 (PAR1), GAL4 two-hybrid fusion, full-length CDS (protein, UniProt Q9SJH0 1-118)
chain: B4 chain
B8: ATBS1 (ACTIVATION-TAGGED BRI1 SUPPRESSOR 1)-… FACTOR 2 (AIF2), GAL4 activation domain fusion (protein, UniProt Q9C8Z9 1-221)
chain: B5 chain
B9: LONG HYPOCOTYL IN FAR-RED 1 (HFR1), split Venus fusion for BiFC (protein, UniProt Q9FE22 1-292)
chain: B3 chain

Experiments:
[1] = molecular target: KIDARI (KDR), GAL4 two-hybrid fusion (A. thaliana) (UniProt Q8GW32); assay: two-hybrid
[2] = molecular target: KIDARI (KDR), GAL4 two-hybrid fusion (A. thaliana) (UniProt Q8GW32); assay: two-hybrid; remark: listed apart in the source
[3] = molecular target: T1, LONG HYPOCOTYL IN FAR-RED 1 (HFR1), GAL4 two-hybrid fusion (A. thaliana) (UniProt Q9FE22); assay: two-hybrid
T1 sequence: B3 chain

[4] = molecular target: T1, LONG HYPOCOTYL IN FAR-RED 1 (HFR1), GAL4 two-hybrid fusion (A. thaliana); assay: two-hybrid; remark: listed apart in the source
[5] = molecular target: T2, PHYTOCHROME-… FACTOR 7 (PIF7), GAL4 two-hybrid fusion (A. thaliana) (UniProt Q570R7); assay: two-hybrid
T2 sequence: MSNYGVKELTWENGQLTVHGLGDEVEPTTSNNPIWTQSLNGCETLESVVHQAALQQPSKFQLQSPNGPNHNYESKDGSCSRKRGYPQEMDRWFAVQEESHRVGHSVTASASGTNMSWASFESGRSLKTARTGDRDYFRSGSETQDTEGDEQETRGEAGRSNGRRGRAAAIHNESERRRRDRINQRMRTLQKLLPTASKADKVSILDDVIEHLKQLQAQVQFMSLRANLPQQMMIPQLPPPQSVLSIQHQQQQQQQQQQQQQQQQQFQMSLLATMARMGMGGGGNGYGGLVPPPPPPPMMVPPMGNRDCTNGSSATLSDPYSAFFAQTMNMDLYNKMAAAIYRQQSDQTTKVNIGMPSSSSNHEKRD

[6] = molecular target: KIDARI (KDR), split Venus fusion for BiFC (A. thaliana) (UniProt Q8GW32); assay: split reporter
[7] = molecular target: T3, PHYTOCHROME RAPIDLY REGULATED 1 (PAR1), GAL4 two-hybrid fusion, full-length CDS (A. thaliana) (UniProt Q9SJH0); assay: two-hybrid
T3 sequence: B4 chain

[8] = molecular target: KIDARI (KDR), GAL4 two-hybrid fusion (A. thaliana) (UniProt Q8GW32); assay: two-hybrid; remark: listed apart in the source

Molecule	binding [2]	binding [6]	also measured
IBH1-LIKE 1 (IBL1), GAL4 activation domain fusion (from UniProt Q9M0B9 1-180)	binds		binding [1]: binds
ATBS1-… FACTOR 4 (AIF4), GAL4 activation domain fusion (from UniProt O80482 1-207)	binds		binding [1]: binds
KIDARI (KDR), GAL4 two-hybrid fusion (from UniProt Q8GW32 1-94)			binding [3]: no binding; binding [4]: no binding
PHYTOCHROME RAPIDLY REGULATED 2 (PAR2), GAL4 activation domain fusion, full-length CDS (from UniProt Q9LXR7 1-118)	binds		binding [5]: no binding
ATBS1-… FACTOR 4 (AIF4), split Venus fusion for BiFC (from UniProt O80482 1-207)		binds	
IBH1-LIKE 1 (IBL1), split Venus fusion for BiFC (from UniProt Q9M0B9 1-180)		binds	
PHYTOCHROME RAPIDLY REGULATED 2 (PAR2), split Venus fusion for BiFC (from UniProt Q9LXR7 1-118)		binds	
B1	binds		binding [1]: binds
B2	no binding		binding [7]: binds; binding [3]: binds
B3	no binding		binding [5]: binds; binding [8]: no binding
B4		binds	
B5		binds	
B6		binds	
B7	binds		
B8	binds		binding [1]: binds
B9		no binding	
